# Assay results: article PMC5687603
# By UniProt entry, the sequences of proteins in these tests, tags left out. Residues count along the entry.
# UniProt Q01082: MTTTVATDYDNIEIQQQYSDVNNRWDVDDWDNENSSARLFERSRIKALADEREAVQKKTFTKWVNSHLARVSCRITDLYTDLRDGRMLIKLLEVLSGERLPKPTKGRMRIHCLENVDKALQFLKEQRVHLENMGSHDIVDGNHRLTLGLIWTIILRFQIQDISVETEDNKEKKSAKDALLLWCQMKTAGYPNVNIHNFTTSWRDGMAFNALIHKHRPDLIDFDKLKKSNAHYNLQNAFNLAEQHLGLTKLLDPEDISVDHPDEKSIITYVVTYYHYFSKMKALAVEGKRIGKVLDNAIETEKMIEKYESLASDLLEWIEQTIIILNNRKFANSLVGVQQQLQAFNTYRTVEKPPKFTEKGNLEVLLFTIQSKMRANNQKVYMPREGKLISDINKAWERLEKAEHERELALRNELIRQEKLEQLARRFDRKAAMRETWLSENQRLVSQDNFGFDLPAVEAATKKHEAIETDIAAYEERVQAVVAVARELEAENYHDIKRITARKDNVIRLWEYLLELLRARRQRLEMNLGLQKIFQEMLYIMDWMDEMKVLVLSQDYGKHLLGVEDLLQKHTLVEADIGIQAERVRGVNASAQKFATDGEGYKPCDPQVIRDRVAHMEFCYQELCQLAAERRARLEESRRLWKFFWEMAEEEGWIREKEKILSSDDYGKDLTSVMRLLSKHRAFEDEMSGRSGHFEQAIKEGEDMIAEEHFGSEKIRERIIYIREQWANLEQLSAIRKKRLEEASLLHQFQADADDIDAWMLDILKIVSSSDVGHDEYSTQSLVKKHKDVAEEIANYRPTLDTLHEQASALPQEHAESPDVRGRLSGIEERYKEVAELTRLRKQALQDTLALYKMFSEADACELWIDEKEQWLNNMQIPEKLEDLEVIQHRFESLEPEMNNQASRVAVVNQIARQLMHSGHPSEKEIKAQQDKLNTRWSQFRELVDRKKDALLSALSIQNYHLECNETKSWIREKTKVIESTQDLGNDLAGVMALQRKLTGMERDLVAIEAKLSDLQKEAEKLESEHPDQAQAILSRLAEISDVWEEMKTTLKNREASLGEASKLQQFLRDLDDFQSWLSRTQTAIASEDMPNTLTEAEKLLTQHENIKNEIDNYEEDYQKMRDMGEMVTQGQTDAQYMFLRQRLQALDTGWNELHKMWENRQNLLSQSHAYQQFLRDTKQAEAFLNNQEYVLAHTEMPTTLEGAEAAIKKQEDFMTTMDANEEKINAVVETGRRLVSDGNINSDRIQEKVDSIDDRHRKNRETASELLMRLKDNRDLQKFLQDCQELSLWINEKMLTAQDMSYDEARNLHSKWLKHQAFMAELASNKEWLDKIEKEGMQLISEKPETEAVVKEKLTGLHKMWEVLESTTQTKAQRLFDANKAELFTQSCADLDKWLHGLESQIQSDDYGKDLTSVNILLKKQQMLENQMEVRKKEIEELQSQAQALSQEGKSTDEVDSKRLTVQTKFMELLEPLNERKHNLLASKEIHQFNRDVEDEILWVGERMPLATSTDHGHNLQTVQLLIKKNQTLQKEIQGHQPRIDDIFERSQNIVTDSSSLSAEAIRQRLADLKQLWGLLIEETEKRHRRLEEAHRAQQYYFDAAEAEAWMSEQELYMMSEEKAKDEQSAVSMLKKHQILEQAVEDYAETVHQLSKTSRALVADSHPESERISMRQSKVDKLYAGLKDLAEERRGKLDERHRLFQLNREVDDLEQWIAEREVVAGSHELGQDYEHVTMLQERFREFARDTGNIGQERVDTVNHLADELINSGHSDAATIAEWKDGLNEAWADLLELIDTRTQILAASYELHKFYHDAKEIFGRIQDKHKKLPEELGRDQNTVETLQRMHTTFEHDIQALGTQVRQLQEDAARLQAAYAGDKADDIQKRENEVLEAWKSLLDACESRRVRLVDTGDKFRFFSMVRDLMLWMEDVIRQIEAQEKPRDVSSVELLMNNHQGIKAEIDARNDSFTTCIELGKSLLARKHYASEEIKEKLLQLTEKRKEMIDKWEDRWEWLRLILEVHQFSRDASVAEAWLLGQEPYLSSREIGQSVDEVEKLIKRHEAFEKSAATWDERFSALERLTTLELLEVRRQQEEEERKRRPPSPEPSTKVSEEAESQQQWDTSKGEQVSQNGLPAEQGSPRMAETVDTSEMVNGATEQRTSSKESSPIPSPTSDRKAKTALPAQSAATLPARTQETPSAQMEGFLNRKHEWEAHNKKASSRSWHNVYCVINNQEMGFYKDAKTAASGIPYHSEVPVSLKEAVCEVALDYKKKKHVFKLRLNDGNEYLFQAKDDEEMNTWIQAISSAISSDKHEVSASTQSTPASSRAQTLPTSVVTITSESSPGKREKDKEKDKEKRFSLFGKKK
# UniProt O60884: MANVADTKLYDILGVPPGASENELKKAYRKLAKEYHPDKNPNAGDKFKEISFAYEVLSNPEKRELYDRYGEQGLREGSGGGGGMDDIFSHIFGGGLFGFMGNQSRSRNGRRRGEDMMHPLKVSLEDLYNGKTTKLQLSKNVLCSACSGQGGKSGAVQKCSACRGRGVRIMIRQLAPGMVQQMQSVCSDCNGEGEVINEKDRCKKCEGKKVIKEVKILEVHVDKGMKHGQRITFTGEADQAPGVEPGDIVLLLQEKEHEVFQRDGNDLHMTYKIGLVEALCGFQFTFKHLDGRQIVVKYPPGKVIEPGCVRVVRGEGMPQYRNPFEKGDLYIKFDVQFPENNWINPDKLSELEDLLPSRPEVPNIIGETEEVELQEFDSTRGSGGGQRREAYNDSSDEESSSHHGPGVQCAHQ
# UniProt P35579: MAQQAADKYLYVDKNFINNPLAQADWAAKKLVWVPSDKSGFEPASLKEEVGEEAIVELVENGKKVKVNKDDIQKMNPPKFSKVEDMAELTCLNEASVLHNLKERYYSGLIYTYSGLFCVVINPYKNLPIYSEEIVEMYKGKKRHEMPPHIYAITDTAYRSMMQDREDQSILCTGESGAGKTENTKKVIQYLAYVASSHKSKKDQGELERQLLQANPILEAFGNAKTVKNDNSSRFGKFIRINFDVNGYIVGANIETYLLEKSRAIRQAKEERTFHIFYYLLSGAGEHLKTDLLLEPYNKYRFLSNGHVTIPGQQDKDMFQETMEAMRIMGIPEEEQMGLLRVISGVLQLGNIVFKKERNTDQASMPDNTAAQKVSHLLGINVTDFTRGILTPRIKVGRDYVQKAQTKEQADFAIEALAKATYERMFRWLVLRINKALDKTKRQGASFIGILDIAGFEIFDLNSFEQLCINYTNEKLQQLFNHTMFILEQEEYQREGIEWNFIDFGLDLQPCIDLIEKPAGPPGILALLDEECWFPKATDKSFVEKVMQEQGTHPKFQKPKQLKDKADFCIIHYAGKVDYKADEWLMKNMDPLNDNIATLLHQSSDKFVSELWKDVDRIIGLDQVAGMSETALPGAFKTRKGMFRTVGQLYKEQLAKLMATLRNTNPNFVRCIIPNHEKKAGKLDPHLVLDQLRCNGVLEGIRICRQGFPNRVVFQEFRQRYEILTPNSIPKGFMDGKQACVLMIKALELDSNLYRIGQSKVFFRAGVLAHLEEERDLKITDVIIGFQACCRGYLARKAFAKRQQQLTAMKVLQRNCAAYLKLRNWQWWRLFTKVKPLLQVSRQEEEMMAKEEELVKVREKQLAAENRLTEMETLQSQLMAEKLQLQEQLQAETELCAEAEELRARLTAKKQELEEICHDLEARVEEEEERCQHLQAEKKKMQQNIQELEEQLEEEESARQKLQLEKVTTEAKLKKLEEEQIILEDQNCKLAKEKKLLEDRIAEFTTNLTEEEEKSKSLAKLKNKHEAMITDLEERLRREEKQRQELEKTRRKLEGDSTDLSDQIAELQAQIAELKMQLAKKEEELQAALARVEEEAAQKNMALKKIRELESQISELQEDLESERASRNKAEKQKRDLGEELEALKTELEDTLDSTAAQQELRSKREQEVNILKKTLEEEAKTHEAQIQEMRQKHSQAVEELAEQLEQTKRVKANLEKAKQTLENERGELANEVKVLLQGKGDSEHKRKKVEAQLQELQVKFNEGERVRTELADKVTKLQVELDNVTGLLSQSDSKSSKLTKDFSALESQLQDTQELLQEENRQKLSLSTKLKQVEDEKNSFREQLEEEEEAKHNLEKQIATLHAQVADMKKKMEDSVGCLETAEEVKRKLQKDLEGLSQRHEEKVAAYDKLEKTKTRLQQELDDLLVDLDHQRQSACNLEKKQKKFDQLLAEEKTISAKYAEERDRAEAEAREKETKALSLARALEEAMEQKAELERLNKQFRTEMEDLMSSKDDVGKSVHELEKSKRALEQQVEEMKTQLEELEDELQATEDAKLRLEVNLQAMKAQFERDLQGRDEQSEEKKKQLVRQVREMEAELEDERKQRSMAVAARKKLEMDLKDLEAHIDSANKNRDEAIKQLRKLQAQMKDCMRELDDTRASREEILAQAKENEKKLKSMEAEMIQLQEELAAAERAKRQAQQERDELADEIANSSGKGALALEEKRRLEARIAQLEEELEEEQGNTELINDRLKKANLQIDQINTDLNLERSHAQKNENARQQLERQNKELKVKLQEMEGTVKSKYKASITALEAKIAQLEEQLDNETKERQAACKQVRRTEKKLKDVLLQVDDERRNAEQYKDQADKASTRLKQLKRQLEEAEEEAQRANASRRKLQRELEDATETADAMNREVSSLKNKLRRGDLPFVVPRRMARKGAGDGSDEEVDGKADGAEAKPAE
# UniProt P08758: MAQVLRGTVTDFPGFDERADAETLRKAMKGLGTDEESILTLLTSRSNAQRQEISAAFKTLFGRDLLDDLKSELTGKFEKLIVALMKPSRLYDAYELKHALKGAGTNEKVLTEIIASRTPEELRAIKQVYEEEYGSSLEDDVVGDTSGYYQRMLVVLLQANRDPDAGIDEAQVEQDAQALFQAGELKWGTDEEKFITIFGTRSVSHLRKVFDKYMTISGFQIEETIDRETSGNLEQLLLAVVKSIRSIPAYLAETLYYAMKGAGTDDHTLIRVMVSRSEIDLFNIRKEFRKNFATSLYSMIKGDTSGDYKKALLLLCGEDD
# UniProt P12814: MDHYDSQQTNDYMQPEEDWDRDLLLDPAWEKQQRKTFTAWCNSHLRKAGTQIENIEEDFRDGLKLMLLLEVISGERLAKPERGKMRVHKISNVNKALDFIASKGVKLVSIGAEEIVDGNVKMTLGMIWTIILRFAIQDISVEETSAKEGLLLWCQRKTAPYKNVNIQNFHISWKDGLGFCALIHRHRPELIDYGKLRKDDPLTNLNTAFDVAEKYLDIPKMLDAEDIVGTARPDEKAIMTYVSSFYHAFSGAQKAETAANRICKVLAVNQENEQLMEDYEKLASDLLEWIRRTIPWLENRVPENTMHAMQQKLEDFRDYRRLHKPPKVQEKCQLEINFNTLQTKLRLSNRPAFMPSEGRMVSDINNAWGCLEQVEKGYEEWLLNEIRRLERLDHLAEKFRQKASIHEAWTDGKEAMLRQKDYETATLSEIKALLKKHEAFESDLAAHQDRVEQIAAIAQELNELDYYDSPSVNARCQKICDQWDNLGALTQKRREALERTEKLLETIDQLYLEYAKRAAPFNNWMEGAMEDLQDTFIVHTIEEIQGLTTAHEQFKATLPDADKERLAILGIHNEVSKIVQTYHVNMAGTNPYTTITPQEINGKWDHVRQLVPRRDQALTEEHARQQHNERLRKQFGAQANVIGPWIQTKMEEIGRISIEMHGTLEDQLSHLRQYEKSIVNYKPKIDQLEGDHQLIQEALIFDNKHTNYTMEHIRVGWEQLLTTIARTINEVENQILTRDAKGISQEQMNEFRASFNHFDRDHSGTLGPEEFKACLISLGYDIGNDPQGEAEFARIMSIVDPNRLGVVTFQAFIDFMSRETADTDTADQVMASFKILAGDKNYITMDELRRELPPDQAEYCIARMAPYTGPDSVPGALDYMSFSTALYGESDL
# UniProt P10809, residues 27-573: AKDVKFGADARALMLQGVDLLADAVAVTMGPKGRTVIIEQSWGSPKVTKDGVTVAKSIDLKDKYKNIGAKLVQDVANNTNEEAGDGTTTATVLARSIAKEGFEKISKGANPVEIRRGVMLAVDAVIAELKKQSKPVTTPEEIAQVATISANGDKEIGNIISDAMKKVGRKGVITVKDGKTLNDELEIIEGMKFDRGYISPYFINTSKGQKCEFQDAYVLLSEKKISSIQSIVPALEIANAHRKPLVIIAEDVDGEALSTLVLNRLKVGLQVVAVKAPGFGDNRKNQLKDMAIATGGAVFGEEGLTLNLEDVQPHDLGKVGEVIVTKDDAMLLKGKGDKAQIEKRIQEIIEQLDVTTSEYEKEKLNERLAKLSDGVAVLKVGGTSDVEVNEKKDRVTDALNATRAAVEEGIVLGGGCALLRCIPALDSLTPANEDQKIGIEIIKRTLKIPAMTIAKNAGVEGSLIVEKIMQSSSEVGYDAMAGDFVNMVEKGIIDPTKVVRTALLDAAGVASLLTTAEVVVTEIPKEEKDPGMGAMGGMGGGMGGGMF
# T1: recombinant mouse short-form Klotho with C-terminal Flag and 6xHis (HEK293) (mouse) (UniProt O35082)
# T1 sequence (chain, N-glycosylated at N161, N285 and N346): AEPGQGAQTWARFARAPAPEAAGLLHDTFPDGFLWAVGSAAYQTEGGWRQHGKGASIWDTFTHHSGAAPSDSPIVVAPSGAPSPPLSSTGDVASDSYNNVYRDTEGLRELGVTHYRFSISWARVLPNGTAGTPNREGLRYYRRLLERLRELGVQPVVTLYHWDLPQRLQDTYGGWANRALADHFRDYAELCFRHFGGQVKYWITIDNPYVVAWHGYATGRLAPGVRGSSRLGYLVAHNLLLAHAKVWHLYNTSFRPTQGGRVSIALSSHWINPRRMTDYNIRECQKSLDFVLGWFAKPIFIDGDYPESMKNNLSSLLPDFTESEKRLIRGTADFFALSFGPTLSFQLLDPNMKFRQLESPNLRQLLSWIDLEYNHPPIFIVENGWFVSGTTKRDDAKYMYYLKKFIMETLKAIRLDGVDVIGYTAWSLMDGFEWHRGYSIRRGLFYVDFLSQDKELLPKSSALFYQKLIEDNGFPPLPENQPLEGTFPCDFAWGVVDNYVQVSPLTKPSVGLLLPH
# B1: Non-POU domain-containing octamer-binding protein (protein, UniProt Q15233 1-471)
# chain: MQSNKTFNLEKQNHTPRKHHQHHHQQQHHQQQQQQPPPPPIPANGQQASSQNEGLTIDLKNFRKPGEKTFTQRSRLFVGNLPPDITEEEMRKLFEKYGKAGEVFIHKDKGFGFIRLETRTLAEIAKVELDNMPLRGKQLRVRFACHSASLTVRNLPQYVSNELLEEAFSVFGQVERAVVIVDDRGRPSGKGIVEFSGKPAARKALDRCSEGSFLLTTFPRPVTVEPMDQLDDEEGLPEKLVIKNQQFHKEREQPPRFAQPGSFEYEYAMRWKALIEMEKQQQDQVDRNIKEAREKLEMEMEAARHEHQVMLMRQDLMRRQEELRRMEELHNQEVQKRKQLELRQEEERRRREEEMRRQQEEMMRRQQEGFKGTFPDAREQEIRMGQMAMGGAMGINNRGAMPPAPVPAGTPAPPGPATMMPDGTLGLTPPTTERFGQAATMEGIGAIGGTPPAFNRAAPGAEFAPNKRRRY
# B2: tRNA-splicing ligase RtcB homolog (protein, UniProt Q9Y3I0 1-505)
# chain: MSRSYNDELQFLEKINKNCWRIKKGFVPNMQVEGVFYVNDALEKLMFEELRNACRGGGVGGFLPAMKQIGNVAALPGIVHRSIGLPDVHSGYGFAIGNMAAFDMNDPEAVVSPGGVGFDINCGVRLLRTNLDESDVQPVKEQLAQAMFDHIPVGVGSKGVIPMNAKDLEEALEMGVDWSLREGYAWAEDKEHCEEYGRMLQADPNKVSARAKKRGLPQLGTLGAGNHYAEIQVVDEIFNEYAAKKMGIDHKGQVCVMIHSGSRGLGHQVATDALVAMEKAMKRDKIIVNDRQLACARIASPEGQDYLKGMAAAGNYAWVNRSSMTFLTRQAFAKVFNTTPDDLDLHVIYDVSHNIAKVEQHVVDGKERTLLVHRKGSTRAFPPHHPLIAVDYQLTGQPVLIGGTMGTCSYVLTGTEQGMTETFGTTCHGAGRALSRAKSRRNLDFQDVLDKLADMGIAIRVASPKLVMEEAPESYKNVTDVVNTCHDAGISKKAIKLRPIAVIKG
# B3: Heterogeneous nuclear ribonucleoprotein D-like (protein, UniProt O14979 1-420)
# chain: MEVPPRLSHVPPPLFPSAPATLASRSLSHWRPRPPRQLAPLLPSLAPSSARQGARRAQRHVTAQQPSRLAGGAAIKGGRRRRPDLFRRHFKSSSIQRSAAAAAATRTARQHPPADSSVTMEDMNEYSNIEEFAEGSKINASKNQQDDGKMFIGGLSWDTSKKDLTEYLSRFGEVVDCTIKTDPVTGRSRGFGFVLFKDAASVDKVLELKEHKLDGKLIDPKRAKALKGKEPPKKVFVGGLSPDTSEEQIKEYFGAFGEIENIELPMDTKTNERRGFCFITYTDEEPVKKLLESRYHQIGSGKCEIKVAQPKEVYRQQQQQQKGGRGAAAGGRGGTRGRGRGQGQNWNQGFNNYYDQGYGNYNSAYGGDQNYSGYGGYDYTGYNYGNYGYGQGYADYSGQQSTYGKASRGGGNHQNNYQPY
# B4: EF-hand domain-containing protein D1 (protein, UniProt Q9BUP0 1-239)
# chain: MASEELACKLERRLRREEAEESGPQLAPLGAPAPEPKPEPEPPARAPTASADAELSAQLSRRLDINEGAARPRRCRVFNPYTEFPEFSRRLIKDLESMFKLYDAGRDGFIDLMELKLMMEKLGAPQTHLGLKSMIKEVDEDFDGKLSFREFLLIFHKAAAGELQEDSGLMALAKLSEIDVALEGVKGAKNFFEAKVQALSSASKFEAELKAEQDERKREEEERRLRQAAFQKLKANFNT
# B5: Plastin-3 (protein, UniProt P13797 1-630)
# chain: MDEMATTQISKDELDELKEAFAKVDLNSNGFICDYELHELFKEANMPLPGYKVREIIQKLMLDGDRNKDGKISFDEFVYIFQEVKSSDIAKTFRKAINRKEGICALGGTSELSSEGTQHSYSEEEKYAFVNWINKALENDPDCRHVIPMNPNTDDLFKAVGDGIVLCKMINLSVPDTIDERAINKKKLTPFIIQENLNLALNSASAIGCHVVNIGAEDLRAGKPHLVLGLLWQIIKIGLFADIELSRNEALAALLRDGETLEELMKLSPEELLLRWANFHLENSGWQKINNFSADIKDSKAYFHLLNQIAPKGQKEGEPRIDINMSGFNETDDLKRAESMLQQADKLGCRQFVTPADVVSGNPKLNLAFVANLFNKYPALTKPENQDIDWTLLEGETREERTFRNWMNSLGVNPHVNHLYADLQDALVILQLYERIKVPVDWSKVNKPPYPKLGANMKKLENCNYAVELGKHPAKFSLVGIGGQDLNDGNQTLTLALVWQLMRRYTLNVLEDLGDGQKANDDIIVNWVNRTLSEAGKSTSIQSFKDKTISSSLAVVDLIDAIQPGCINYDLVKSGNLTEDDKHNNAKYAVSMARRIGARVYALPEDLVEVKPKMVMTVFACLMGRGMKRV
# Biological target: T1, recombinant mouse short-form Klotho with C-terminal Flag and 6xHis (HEK293) (mouse)
# Test: affinity purification with mass spectrometry; lysates of HEK293 cells expressing Skl-Flag-6xHis, Klotho or Flag antibody on IP-Direct beads, low-pH elution, SDS-PAGE, in-gel trypsin digest, nano-LC-nano-ESI MS/MS, Mascot search of Swiss-Prot; compared with control cells
row,binding,Molecule
1,binds,26S protease regulatory subunit 6B (from UniProt P43686 1-418)
2,binds,Polyadenylate-binding protein 1 (from UniProt P11940 1-636)
3,binds,Myosin-10 (from UniProt P35580 1-1976)
4,binds,Eukaryotic translation initiation factor 3 subunit G (from UniProt O75821 1-320)
5,binds,"Spectrin beta chain, non-erythrocytic 1 (from UniProt Q01082 1-2364)"
6,binds,X-ray repair cross-complementing protein 5 (from UniProt P13010 1-732)
7,binds,"Spectrin alpha chain, non-erythrocytic 1 (from UniProt Q13813 1-2472)"
8,binds,DnaJ homolog subfamily A member 2 (from UniProt O60884 1-412)
9,binds,Myosin-9 (from UniProt P35579 1-1960)
10,binds,Replication protein A 70 kDa DNA-binding subunit (from UniProt P27694 1-616)
11,binds,Ras GTPase-activating-like protein IQGAP1 (from UniProt P46940 1-1657)
12,binds,POTE ankyrin domain family member E (from UniProt Q6S8J3 1-1075)
13,binds,Annexin A5 (from UniProt P08758 1-320)
14,binds,Elongation factor 1-gamma (from UniProt P26641 1-437)
15,binds,78 kDa glucose-regulated protein (from UniProt P11021 19-654)
16,binds,Eukaryotic translation initiation factor 2 subunit 3 (from UniProt P41091 1-472)
17,binds,Alpha-actinin-1 (from UniProt P12814 1-892)
18,binds,Alpha-actinin-4 (from UniProt O43707 1-911)
19,binds,Probable ATP-dependent RNA helicase DDX5 (from UniProt P17844 1-614)
20,binds,"60 kDa heat shock protein, mitochondrial (from UniProt P10809 27-573)"
21,binds,Coronin-1C (from UniProt Q9ULV4 1-474)
22,binds,B1
23,binds,B2
24,binds,B3
25,binds,B4
26,binds,B5

# Results are given in words; binding and its absence hold for the method and conditions named. Binding seen in cells or lysates may run through a third protein. Here binding means that the protein was enriched with, or labelled near, the bait; the list need not be complete. Where a sequence is shown, tags or fusion partners need not be part of it.
